In the test the target is α3β1 (VLA-3) integrin of cells (HeLa cells; K562A3 transfectants) (human) (UniProt P26006). Put plainly: immunoprecipitation from HeLa cell lysate, mass spectrometry of the 150 kDa band.

The chains behind the UniProt entries cited, without tags or fusion partners. Where a name states a change or a piece, a line headed by the entry shows the natural chain unless it says otherwise.
UniProt P26006: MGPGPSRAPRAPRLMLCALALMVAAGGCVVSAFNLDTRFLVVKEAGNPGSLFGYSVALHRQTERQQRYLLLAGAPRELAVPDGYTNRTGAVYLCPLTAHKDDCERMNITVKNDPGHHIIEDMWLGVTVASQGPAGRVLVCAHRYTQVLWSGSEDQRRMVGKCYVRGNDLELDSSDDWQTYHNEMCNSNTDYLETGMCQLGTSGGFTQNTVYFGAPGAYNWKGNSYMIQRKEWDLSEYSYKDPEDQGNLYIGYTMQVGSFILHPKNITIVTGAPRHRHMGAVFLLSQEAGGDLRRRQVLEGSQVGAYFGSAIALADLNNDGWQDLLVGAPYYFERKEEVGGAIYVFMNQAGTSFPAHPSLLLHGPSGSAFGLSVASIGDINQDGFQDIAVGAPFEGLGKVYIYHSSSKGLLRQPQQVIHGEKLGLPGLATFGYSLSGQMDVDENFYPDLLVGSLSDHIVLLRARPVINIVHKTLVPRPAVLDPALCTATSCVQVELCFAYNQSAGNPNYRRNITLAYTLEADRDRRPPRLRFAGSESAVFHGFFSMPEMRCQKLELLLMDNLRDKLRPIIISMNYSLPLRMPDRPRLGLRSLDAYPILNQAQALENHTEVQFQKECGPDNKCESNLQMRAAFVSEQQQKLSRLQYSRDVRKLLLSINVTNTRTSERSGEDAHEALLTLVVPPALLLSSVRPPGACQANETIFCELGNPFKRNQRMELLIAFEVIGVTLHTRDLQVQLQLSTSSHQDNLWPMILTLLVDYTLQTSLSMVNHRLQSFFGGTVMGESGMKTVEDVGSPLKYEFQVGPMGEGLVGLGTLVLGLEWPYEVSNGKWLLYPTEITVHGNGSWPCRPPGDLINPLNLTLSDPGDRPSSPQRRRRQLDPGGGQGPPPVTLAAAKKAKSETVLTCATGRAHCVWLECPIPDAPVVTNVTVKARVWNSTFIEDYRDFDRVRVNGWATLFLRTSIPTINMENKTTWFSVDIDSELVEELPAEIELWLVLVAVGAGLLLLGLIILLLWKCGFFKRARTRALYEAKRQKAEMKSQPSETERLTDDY

These are yes or no findings as the source states them, for the method shown. Binding seen in cells or lysates may run through a third protein. Here binding means that the protein was enriched with, or labelled near, the bait; the list need not be complete.

B1: VHH-H6 (VHH)
VHH: QVQLQDSGGGLVQAGGSLRLSCEASGRTFSSYAMGWFRQPPGKEREWVSTISRSGSAIYAYPVKGRFTMSRDNAKNTVYLEMNSLKPEDTAVFYCAAARSGVPSSRPTDYDYWGQGTQVTVSS
notes: Used with a Myc tag (captured/detected with anti-Myc 9E10) and a C-terminal His6 tag (detected with anti-HIS6 (C-term)); also called H6-VHH
For the molecule B1, the binding entry is reported as “binds”.

Source of the values: patent US20110294982A1 (Ablynx, published 2011).
